Laboratory results published in PubChem BioAssay AID330 (DTP/NCI, 2004).
The list shows only some results of the screen, not a fair sample: it gathers tests that were run many times, whatever their T/C, doses with no T/C, and many T/C values between a quarter and a half above the control. Further doses and runs are listed elsewhere. T/C gives the treated animals as a percentage of the vehicle group. Some entries give survivors of the animals treated and no T/C: the source holds a T/C of zero for them, seemingly a mark for toxic or unscored doses. Some survivor counts are full or nearly so, which does not show that the dose was tolerated: survival well below the control is almost never listed, so the zero probably covers shortened survival too. Counts of survivors are from the toxicity check (mostly the fifth day) where no day follows; animals may have died later. Schedule codes are those of the source, read here as Q, the interval in days (D) or hours (H), X, the number of doses. Some entries hold several experiments; their values stand side by side, smallest first. Some molecules as drawn cover several salts, stereoisomers or complexes of the source; a dose is that of the sample tested. For survival time, this PubChem deposit counts one and a half times the control or more as active, and values a quarter to a half above the control carry no call in these data; other NCI protocols may use other cut-offs. Additions like (4×) give the number of equal values in this list. Some T/C values carry the count of animals alive at the toxicity check (mostly the fifth day); without a count, all were alive then.

Tested on: P388 leukemia ip, CD2F1 mice, survival T/C
Test: NCI In Vivo Anticancer Drug Screen. Data for tumor model P388 Leukemia (intraperitoneal) in CD2F1 (CDF1) mice
Conditions: T/C endpoint: median survival time, higher T/C = longer survival
[1] = dose: 100.0 mg/kg/injection, schedule: Q01DX005 (ip), vehicle: Klucel (hydroxypropylcellulose) (HPC)
[2] = dose: 200.0 mg/kg/injection, schedule: Q01DX005 (ip), vehicle: Klucel (hydroxypropylcellulose) (HPC)
[3] = dose: 50.0 mg/kg/injection, schedule: Q01DX005 (ip), vehicle: saline with Tween-80
[4] = dose: 100.0 mg/kg/injection, schedule: Q01DX005 (ip), vehicle: saline with Tween-80
[5] = dose: 50.0 mg/kg/injection, schedule: Q01DX009 (ip), vehicle: Klucel (hydroxypropylcellulose) (HPC)
[6] = dose: 100.0 mg/kg/injection, schedule: Q01DX009 (ip), vehicle: Klucel (hydroxypropylcellulose) (HPC)
[7] = dose: 200.0 mg/kg/injection, schedule: Q01DX009 (ip), vehicle: Klucel (hydroxypropylcellulose) (HPC)
[8] = dose: 25.0 mg/kg/injection, schedule: Q01DX009 (ip), vehicle: saline with Tween-80
[9] = dose: 240.0 mg/kg/injection, schedule: Q01DX005 (ip), vehicle: saline
[10] = dose: 25.0 mg/kg/injection, schedule: Q01DX005 (ip), vehicle: Klucel (hydroxypropylcellulose) (HPC)
[11] = dose: 50.0 mg/kg/injection, schedule: Q01DX005 (ip), vehicle: Klucel (hydroxypropylcellulose) (HPC)

With `CCOC(=O)/C(C#N)=C\c1ccc(/C=C(\C#N)C(=O)OCC)cc1` the survivor count (dose: 200.0 mg/kg/injection, schedule: Q04DX003 (ip), vehicle: saline with Tween-80) was 4 of 6 and the survivor count (dose: 400.0 mg/kg/injection, schedule: Q04DX003 (ip), vehicle: saline with Tween-80) was 4 of 6.

`COc1cc2c(c3c1c(=O)c1cccc(F)c1n3C)C=CC(C)(C)O2` was tested, and the T/C [1] was 127 % of control and the T/C [2] was 138 and 140 % of control.

In the case of `CCCCOP(=O)(O)OCCCC`, the survivor count (dose: 400.0 mg/kg/injection, schedule: Q01DX001 (ip), vehicle: Klucel (hydroxypropylcellulose) (HPC)) is reported as 6 of 6.

In the case of `NC(CSC(c1ccccc1)(c1ccccc1)c1ccc(CBr)cc1)C(=O)O` (configuration not stated), the T/C (dose: 12.5 mg/kg/injection, schedule: Q01DX009 (ip), vehicle: other) is reported as 128 % of control, the T/C (dose: 25.0 mg/kg/injection, schedule: Q01DX009 (ip), vehicle: other) is reported as 132 and 132 % of control [5 of 6 alive] and the T/C (dose: 50.0 mg/kg/injection, schedule: Q01DX009 (ip), vehicle: other) is reported as 137 % of control (2×).

In the case of `CC[n+]1ccc2c(C)c3[nH]c4ccc(O)cc4c3c(C)c2c1`, the survivor count (dose: 25.0 mg/kg/injection, schedule: Q04DX003 (ip), vehicle: saline) is reported as 3 of 6, the survivor count (dose: 50.0 mg/kg/injection, schedule: Q04DX003 (ip), vehicle: saline) is reported as 2 of 6 and the survivor count (dose: 100.0 mg/kg/injection, schedule: Q04DX003 (ip), vehicle: saline) is reported as 5 of 6. For the same compound, the survivor count (dose: 200.0 mg/kg/injection, schedule: Q04DX003 (ip), vehicle: saline) was 0 of 6.

For `O=C(NC1CCC(CC2CCC(NC(=O)C34CC5CC(CC(C5)C3)C4)CC2)CC1)C12CC3CC(CC(C3)C1)C2` (configuration not stated), the survivor count (dose: 3.12 mg/kg/injection, schedule: Q01DX005 (ip), vehicle: saline with Tween-80) was 6 of 6, the survivor count (dose: 6.25 mg/kg/injection, schedule: Q01DX005 (ip), vehicle: saline with Tween-80) was 6 of 6 and the survivor count (dose: 12.5 mg/kg/injection, schedule: Q01DX005 (ip), vehicle: saline with Tween-80) was 6 of 6. The survivor count (dose: 25.0 mg/kg/injection, schedule: Q01DX005 (ip), vehicle: saline with Tween-80) was 6 of 6, the survivor count [3] was 6 of 6 and the survivor count [4] was 6 of 6.

With `CC(=O)Nc1ccc(/C=C2\C(=O)Nc3ccccc32)cc1` the survivor count [5] was 6 of 6, the survivor count [6] was 6 of 6 and the survivor count [7] was 5 of 6.

`COc1cc(C2c3cc4c(cc3C(O)C(CO)C2CO)OCO4)cc(OC)c1OC` (configuration not stated) was tested, and the T/C (dose: 16.5 mg/kg/injection, schedule: Q01DX009 (ip), vehicle: saline with Tween-80) was 136 % of control, the T/C [8] was 136 % of control and the T/C (dose: 50.0 mg/kg/injection, schedule: Q04DX003 (ip), vehicle: saline with Tween-80) was 140 % of control. For the same compound, the T/C (dose: 176.0 mg/kg/injection, schedule: Q04DX003 (ip), vehicle: saline with Tween-80) was 145 % of control.

`CCC/C(C)=N/NC(=S)SC` was tested, and the survivor count (dose: 50.0 mg/kg/injection, schedule: Q01DX009 (ip), vehicle: saline) was 2 of 6, the survivor count (dose: 100.0 mg/kg/injection, schedule: Q01DX009 (ip), vehicle: saline) was 1 of 6 and the survivor count (dose: 200.0 mg/kg/injection, schedule: Q01DX009 (ip), vehicle: saline) was 0 of 6.

For `O=C(/C=C/c1ccc(OCc2ccccc2)cc1)c1ccccc1Cl`, the survivor count (dose: 200.0 mg/kg/injection, schedule: Q01DX009 (ip), vehicle: saline with Tween-80) was 6 of 6 and the survivor count (dose: 400.0 mg/kg/injection, schedule: Q01DX009 (ip), vehicle: saline with Tween-80) was 6 of 6.

For `CCCCCCC(=O)CCCCCCCCCCCCC(=O)OC`, the survivor count (dose: 12.5 mg/kg/injection, schedule: Q01DX009 (ip), vehicle: saline with Tween-80) was 6 of 6, the survivor count [8] was 6 of 6 and the survivor count (dose: 50.0 mg/kg/injection, schedule: Q01DX009 (ip), vehicle: saline with Tween-80) was 6 of 6.

In the case of `C#CCN1CCCCC1`, the survivor count (dose: 100.0 mg/kg/injection, schedule: Q01DX005 (ip), vehicle: saline) is reported as 0 of 6 and the survivor count (dose: 200.0 mg/kg/injection, schedule: Q01DX005 (ip), vehicle: saline) is reported as 0 of 6.

For `CCN(CC)CCSc1c2ccccc2nc2ccccc12`, the survivor count (dose: 60.0 mg/kg/injection, schedule: Q01DX005 (ip), vehicle: saline) was 0 of 6, the survivor count (dose: 120.0 mg/kg/injection, schedule: Q01DX005 (ip), vehicle: saline) was 0 of 6 and the survivor count [9] was 0 of 6.

With `O=C(Nc1cccc(C(F)(F)F)c1)c1cc(Br)cc(Br)c1O` the survivor count [5] was 2 of 6.

For `COc1cc2oc(=O)ccc2cc1[C@@H]1OC(=O)C2(C)O[C@@H]12` (some centres not stated), the T/C (dose: 10.0 mg/kg/injection, schedule: Q01DX009 (ip), vehicle: saline) was 149 % of control.

`COC(=O)c1cc(-c2ccccc2)[nH]c(=O)c1C#N` was tested, and the survivor count [9] was 0 of 6.

For `C[n+]1cc(-c2ccccc2)cc(-c2ccccc2)c1`, the survivor count [10] was 0 of 6, the survivor count (dose: 25.0 mg/kg/injection, schedule: Q01DX005 (ip), vehicle: saline) was 2 of 6 and the survivor count [11] was 0 of 6. The survivor count [3] was 0 of 6, the survivor count [1] was 0 of 6 and the survivor count [4] was 0 of 6. For the same compound, the survivor count [2] was 0 of 6 and the survivor count (dose: 200.0 mg/kg/injection, schedule: Q01DX005 (ip), vehicle: saline with Tween-80) was 0 of 6.

With `CSc1cccc(NC(=O)Oc2ccc([N+](=O)[O-])cc2Cl)c1` the survivor count (dose: 25.0 mg/kg/injection, schedule: Q01DX009 (ip), vehicle: DMSO) was 6 of 6, the survivor count (dose: 50.0 mg/kg/injection, schedule: Q01DX009 (ip), vehicle: DMSO) was 3 of 6 and the survivor count (dose: 100.0 mg/kg/injection, schedule: Q01DX009 (ip), vehicle: DMSO) was 2 of 6. The survivor count (dose: 200.0 mg/kg/injection, schedule: Q01DX009 (ip), vehicle: DMSO) was 0 of 6.

`CC1=C[P+](c2ccccc2)(c2ccccc2)c2ccccc2O1` was tested, and the survivor count (dose: 12.5 mg/kg/injection, schedule: Q01DX005 (ip), vehicle: Klucel (hydroxypropylcellulose) (HPC)) was 5 of 5, the survivor count [10] was 3 of 5 and the survivor count [11] was 2 of 5. The survivor count [1] was 0 of 5 and the survivor count [2] was 0 of 5.

In the case of `CC(=O)Nc1ccc(C(=O)CCl)c(Cl)c1`, the survivor count [5] is reported as 1 of 6 and 2 of 6, the survivor count [6] is reported as 0 of 6 and the survivor count [7] is reported as 0 of 6.

In the case of `CP1(=O)CCc2c1ccc1ccccc21` (configuration not stated), the survivor count (dose: 400.0 mg/kg/injection, schedule: Q04DX002 (ip), vehicle: saline) is reported as 2 of 6.

With `CNC(C)C1(O)Cc2c(O)c3c(c(O)c2C(OC2CC(N)C(O)C(C)O2)C1)C(=O)c1c(OC)cccc1C3=O` (configuration not stated) the T/C (dose: 0.5 mg/kg/injection, schedule: Q01DX009 (ip), vehicle: water) was 127 % of control, the T/C (dose: 1.0 mg/kg/injection, schedule: Q01DX009 (ip), vehicle: water) was 133 % of control and the T/C (dose: 2.0 mg/kg/injection, schedule: Q01DX009 (ip), vehicle: water) was 135 and 146 % of control. For the same compound, the T/C (dose: 4.0 mg/kg/injection, schedule: Q01DX009 (ip), vehicle: water) was 144 % of control and the survivor count (dose: 32.0 mg/kg/injection, schedule: Q01DX009 (ip), vehicle: water) was 4 of 6.
